The other results are listed elsewhere or left out. Some tests of the compounds listed are not included; inactive here does not mean inactive elsewhere.
experiment: growth inhibitors of anaerobic choline-fed gram-negatives, minimal medium, absorbance (AID 1963822); conditions: Gram-negative bacterium anaerobic choline minimal medium, measured here: choline growth z-score, timepoint 1, stronger effect = lower value

For Cc1ccc2oc(C(=O)NCC3(N(C)C)CCCCC3)c(C)c2c1, which z-score is on record?
Its z-score is 0.46.

With Cc1cc(C)c2c(C)c(C(=O)NCC3(N(C)C)CCCCC3)oc2c1 as the compound, how does the z-score read?
The z-score was -0.94.

Which z-score does the source give for Cc1c(C(=O)NCC2(N(C)C)CCCCC2)oc2ccccc12 here?
Its z-score is 0.28.

For Cc1cc2oc(C(=O)NCC3(N(C)C)CCCCC3)c(C)c2cc1Cl, which z-score is on record?
The z-score was 0.44.

For Cc1c(C(=O)NCC2(N(C)C)CCCCC2)oc2ccc(F)cc12, which z-score is on record?
Its z-score is -0.88.

For Cc1ccc2c(C)c(C(=O)NCC3(N(C)C)CCCCC3)oc2c1, which z-score is on record?
Its z-score is 0.95.

With Cc1ccc2c(Cl)c(C(=O)NCC3(N(C)C)CCCCC3)sc2c1 as the compound, how does the z-score read?
The z-score was -0.86.
